Experimental findings from patent EP0406111A1, “Substituted arylamines and heteroarylamines, process for their preparation and pharmaceutical composition containing them” (SOCIETE DE CONSEILS DE […] D'APPLICATIONS SCIENTIFIQUES …, priority 1989, dated 1991) are described below.

The assay addresses récepteur de la PCP. Briefly: Competition binding at the (3H)TCP sites on rat brain homogenates (Example 36). As to conditions: 1 nM (3H)TCP, 30 min at 25°C. An excerpt: Exemple 36 : Affinité des composés pour les sites de liaison de la (³H)TCP sur les homogénats de cerveaux de rats.
Dans cet essai on mesure les affinités des composés pour le récepteur de la PCP par des expériences de compétition sur des homogénats de cerveaux de rats. Le ligand radioactif utilisé est la (³H)TCP à une activité spécifique de 62 Ci/mmol (Service des Molécules Marquées, CEA Saclay France).
Les cerveaux de rats (sans le cervelet et le tronc cérébral) sont homogénéisés à l'ultra turax dans 20 volumes de tampon Hepes-Tris 50 mM, pH 7,7. Après centrifugation pendant 30 min à 15000 g le culot est repris dans le même volume de tampon et recentrifugé dans les mêmes conditions. Le culot final est repris dans du tampon Hepes-Tris 50 mM, pH 7,7 de façon à obtenir une concentration en protéine de 6 à 8 mg/ml.
Les expériences de compétition sont réalisées en incubant pendant 30 min les membranes (concentration finale en protéine : 0,6 à 0,8 mg/ml) en milieu tampon 5 mM Hepes-Tris, pH 7,7 à 25°C, en présence d'une concentration fixe de ligand tritié (1 nM)et de concentrations croissantes de composés à tester. Trois échantillons de 600 µL sont ensuite filtrés sur filtres de fibres de verre GF/B prétraités par du PEI (polyéthylénimine) à 0,1%. […]

By IC50 is commonly meant the concentration that gives 50% inhibition. In turn, `CN1Cc2c(N)cccc2C(c2ccccc2)C1` (stereo not shown) [Nomifensine, amino-8 méthyl-2 phényl-4 tétrahydro- 1,2,3,4 isoquinoline, reference compound] returned an IC50 of 95 µM.
